The target in this experiment is T1, macrophage migration inhibitory factor (MIF), endogenous (human (endogenous in MDA-MB-231 and HeLa)) (UniProt P14174).
T1 sequence: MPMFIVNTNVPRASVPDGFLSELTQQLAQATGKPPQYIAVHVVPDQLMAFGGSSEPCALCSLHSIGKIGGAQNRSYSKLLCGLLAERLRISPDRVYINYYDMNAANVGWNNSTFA
The experiment can be described thus: co-IP; V5-tagged full-length PARP1 and truncates with MIF; cells and antibodies not stated.

These are yes or no findings as the source states them, for the method shown. Binding seen in cells or lysates may run through a third protein.

As to “V5-tagged PARP1 ΔZn (human) (domain or fragment)”, the binding result is reported as “no binding”.

Source of the values: PMC8134555.
